Assay results published in publication PMC8052343.

By UniProt entry, the sequences of proteins in these tests, tags left out. Where a name states a change or a piece, a line headed by the entry shows the natural chain unless it says otherwise.
UniProt P25007: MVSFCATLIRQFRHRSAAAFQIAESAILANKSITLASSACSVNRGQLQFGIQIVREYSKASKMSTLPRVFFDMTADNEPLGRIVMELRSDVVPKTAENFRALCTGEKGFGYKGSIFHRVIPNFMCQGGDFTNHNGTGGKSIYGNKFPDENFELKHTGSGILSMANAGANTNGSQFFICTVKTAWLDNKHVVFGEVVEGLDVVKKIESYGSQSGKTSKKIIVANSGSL
UniProt Q9VQ79: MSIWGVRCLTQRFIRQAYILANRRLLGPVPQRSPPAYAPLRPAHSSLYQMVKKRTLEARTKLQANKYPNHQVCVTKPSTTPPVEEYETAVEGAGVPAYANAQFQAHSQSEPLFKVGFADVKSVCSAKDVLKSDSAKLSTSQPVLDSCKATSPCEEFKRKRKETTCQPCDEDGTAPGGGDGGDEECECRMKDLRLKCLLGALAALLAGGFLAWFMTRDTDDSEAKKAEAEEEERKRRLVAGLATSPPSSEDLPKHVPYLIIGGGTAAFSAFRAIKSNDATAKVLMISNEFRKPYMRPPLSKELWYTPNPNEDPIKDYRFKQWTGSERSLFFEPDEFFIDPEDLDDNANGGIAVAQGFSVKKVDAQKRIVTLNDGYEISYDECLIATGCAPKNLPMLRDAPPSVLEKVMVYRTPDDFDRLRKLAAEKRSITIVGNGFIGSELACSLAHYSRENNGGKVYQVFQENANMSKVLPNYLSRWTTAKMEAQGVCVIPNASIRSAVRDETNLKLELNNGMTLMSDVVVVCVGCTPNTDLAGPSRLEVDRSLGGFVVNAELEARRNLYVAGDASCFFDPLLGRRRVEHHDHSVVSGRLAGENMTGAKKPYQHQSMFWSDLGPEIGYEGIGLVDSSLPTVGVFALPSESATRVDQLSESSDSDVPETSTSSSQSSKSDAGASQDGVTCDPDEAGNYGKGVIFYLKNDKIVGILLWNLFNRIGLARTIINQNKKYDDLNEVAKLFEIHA

Experiments:
[1] = molecular target: full-length recombinant Twin-Strep-tagged Cyp1 (Cyp1-Twin-Strep) (Drosophila) (UniProt P25007); assay: pull-down; Strep-tag pulldown from lysates of E. coli co-expressing the two proteins; Strep-Tactin Sepharose resin; 50 mM Tris-HCl pH 8, 500 mM NaCl; blots with anti-Strep-tag and anti-GST
[2] = molecular target: FLAG-tagged DNase II (FLAG-DNase II) (Drosophila) (UniProt Q9VED8); assay: pull-down; FLAG-tag pulldown from lysates of E. coli co-expressing the two proteins; Anti-DYKDDDDK G1 affinity resin; lysis in Tris-buffered saline with PMSF and protease inhibitors; blots with anti-FLAG and anti-GST

binding [1]: binds
binding [2]: binds
Substance: full-length recombinant glutathione S-transferase-tagged AIF (GST-AIF) (from UniProt Q9VQ79)

Results are given in words; binding and its absence hold for the method and conditions named. Binding seen in cells or lysates may run through a third protein. Binding calls can cover weak binding; strength is not graded here.
